Reference: publication PMC9284225

Legend:
[1] = tested on: GST-BcWRKY1 (Baphicacanthus cusia); test: EMSA; settings: LightShift Chemiluminescent EMSA kit (Thermo Scientific), manufacturer's instructions; pH and temperature not stated; recombinant protein; protein details: N-terminal GST (pGEX-4T-1)
[2] = tested on: GST-BcWRKY1 (Baphicacanthus cusia); test: competition with a labelled probe; settings: unlabeled competitor attenuates binding to biotin-labeled N1; LightShift Chemiluminescent EMSA kit (Thermo Scientific), manufacturer's instructions; pH and temperature not stated; recombinant protein; protein details: N-terminal GST (pGEX-4T-1)

Sequence | binding result [1] | binding result [2]
ATGGCGCCATTTGACTAGCGTAGTTTGACCGCTCATGAACA (double strand) [W-box probe] | binds | –
ATGGCGCCATTTGACTAGCGTAGTTTGACCGCTCATGAACA (double strand) [unlabeled W-box competitor] | – | binds

The exact form of at least one protein or probe is not confirmed.
